Data as given in article PMC11442470.
These are yes or no findings as the source states them, for the method shown. Binding seen in cells or lysates may run through a third protein. Binding calls can cover weak binding; strength is not graded here. Sequences can lack the tags named with a protein.

Target: T1, FLAG-tagged full-length PDZD8, stably expressed in MEFs (human) (UniProt Q8NEN9)
T1 sequence: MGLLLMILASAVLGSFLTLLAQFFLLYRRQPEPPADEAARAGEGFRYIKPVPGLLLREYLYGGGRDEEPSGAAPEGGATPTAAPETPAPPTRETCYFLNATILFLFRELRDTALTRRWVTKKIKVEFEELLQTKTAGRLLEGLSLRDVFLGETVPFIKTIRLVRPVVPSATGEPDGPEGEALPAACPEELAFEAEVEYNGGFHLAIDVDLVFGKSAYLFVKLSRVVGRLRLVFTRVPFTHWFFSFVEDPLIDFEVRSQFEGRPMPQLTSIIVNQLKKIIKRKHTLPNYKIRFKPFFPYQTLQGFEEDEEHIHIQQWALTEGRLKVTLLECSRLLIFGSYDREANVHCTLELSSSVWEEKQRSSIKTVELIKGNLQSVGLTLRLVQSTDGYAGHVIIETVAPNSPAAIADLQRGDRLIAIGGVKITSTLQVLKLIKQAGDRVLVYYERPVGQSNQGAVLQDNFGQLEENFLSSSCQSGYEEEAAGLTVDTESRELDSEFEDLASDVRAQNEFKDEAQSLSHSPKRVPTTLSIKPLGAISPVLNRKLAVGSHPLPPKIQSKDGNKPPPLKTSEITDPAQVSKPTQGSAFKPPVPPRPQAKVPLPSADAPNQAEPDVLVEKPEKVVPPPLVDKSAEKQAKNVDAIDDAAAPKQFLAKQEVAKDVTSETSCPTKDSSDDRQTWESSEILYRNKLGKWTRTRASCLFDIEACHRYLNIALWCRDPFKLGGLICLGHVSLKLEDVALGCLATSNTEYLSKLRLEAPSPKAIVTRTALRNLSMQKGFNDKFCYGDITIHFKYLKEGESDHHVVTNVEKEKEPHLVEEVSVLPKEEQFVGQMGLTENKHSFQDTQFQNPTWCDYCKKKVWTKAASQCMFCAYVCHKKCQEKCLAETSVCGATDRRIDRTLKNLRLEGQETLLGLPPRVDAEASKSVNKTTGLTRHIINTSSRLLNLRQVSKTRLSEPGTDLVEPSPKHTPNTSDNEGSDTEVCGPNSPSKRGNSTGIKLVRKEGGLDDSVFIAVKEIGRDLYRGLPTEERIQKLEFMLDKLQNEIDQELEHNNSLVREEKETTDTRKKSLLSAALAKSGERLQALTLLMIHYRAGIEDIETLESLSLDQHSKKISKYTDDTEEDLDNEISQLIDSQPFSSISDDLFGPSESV
Test: co-IP; MEFs stably expressing FLAG-tagged PDZD8, Triton lysis buffer (20 mM Tris-HCl pH 7.5, 150 mM NaCl, 1% Triton X-100), anti-FLAG M2 gel, elution with FLAG peptide, blot for endogenous 14-3-3

binding: binds
Substance: chaperone protein 14-3-3, endogenous in MEFs (mouse (endogenous in MEFs))
